Source: publication PMC10909764
Where a chain is given by its changes, count along the chain named. These are yes or no findings as the source states them, for the method shown. In cells and extracts the contact can be indirect. Some binding calls cover weakened binding; strength is not graded here. For some assays here: Sequences can lack the tags named with a protein.

The chains behind the UniProt entries cited, without tags or fusion partners. Residues count along the entry.
UniProt P11717, residues 41-2491: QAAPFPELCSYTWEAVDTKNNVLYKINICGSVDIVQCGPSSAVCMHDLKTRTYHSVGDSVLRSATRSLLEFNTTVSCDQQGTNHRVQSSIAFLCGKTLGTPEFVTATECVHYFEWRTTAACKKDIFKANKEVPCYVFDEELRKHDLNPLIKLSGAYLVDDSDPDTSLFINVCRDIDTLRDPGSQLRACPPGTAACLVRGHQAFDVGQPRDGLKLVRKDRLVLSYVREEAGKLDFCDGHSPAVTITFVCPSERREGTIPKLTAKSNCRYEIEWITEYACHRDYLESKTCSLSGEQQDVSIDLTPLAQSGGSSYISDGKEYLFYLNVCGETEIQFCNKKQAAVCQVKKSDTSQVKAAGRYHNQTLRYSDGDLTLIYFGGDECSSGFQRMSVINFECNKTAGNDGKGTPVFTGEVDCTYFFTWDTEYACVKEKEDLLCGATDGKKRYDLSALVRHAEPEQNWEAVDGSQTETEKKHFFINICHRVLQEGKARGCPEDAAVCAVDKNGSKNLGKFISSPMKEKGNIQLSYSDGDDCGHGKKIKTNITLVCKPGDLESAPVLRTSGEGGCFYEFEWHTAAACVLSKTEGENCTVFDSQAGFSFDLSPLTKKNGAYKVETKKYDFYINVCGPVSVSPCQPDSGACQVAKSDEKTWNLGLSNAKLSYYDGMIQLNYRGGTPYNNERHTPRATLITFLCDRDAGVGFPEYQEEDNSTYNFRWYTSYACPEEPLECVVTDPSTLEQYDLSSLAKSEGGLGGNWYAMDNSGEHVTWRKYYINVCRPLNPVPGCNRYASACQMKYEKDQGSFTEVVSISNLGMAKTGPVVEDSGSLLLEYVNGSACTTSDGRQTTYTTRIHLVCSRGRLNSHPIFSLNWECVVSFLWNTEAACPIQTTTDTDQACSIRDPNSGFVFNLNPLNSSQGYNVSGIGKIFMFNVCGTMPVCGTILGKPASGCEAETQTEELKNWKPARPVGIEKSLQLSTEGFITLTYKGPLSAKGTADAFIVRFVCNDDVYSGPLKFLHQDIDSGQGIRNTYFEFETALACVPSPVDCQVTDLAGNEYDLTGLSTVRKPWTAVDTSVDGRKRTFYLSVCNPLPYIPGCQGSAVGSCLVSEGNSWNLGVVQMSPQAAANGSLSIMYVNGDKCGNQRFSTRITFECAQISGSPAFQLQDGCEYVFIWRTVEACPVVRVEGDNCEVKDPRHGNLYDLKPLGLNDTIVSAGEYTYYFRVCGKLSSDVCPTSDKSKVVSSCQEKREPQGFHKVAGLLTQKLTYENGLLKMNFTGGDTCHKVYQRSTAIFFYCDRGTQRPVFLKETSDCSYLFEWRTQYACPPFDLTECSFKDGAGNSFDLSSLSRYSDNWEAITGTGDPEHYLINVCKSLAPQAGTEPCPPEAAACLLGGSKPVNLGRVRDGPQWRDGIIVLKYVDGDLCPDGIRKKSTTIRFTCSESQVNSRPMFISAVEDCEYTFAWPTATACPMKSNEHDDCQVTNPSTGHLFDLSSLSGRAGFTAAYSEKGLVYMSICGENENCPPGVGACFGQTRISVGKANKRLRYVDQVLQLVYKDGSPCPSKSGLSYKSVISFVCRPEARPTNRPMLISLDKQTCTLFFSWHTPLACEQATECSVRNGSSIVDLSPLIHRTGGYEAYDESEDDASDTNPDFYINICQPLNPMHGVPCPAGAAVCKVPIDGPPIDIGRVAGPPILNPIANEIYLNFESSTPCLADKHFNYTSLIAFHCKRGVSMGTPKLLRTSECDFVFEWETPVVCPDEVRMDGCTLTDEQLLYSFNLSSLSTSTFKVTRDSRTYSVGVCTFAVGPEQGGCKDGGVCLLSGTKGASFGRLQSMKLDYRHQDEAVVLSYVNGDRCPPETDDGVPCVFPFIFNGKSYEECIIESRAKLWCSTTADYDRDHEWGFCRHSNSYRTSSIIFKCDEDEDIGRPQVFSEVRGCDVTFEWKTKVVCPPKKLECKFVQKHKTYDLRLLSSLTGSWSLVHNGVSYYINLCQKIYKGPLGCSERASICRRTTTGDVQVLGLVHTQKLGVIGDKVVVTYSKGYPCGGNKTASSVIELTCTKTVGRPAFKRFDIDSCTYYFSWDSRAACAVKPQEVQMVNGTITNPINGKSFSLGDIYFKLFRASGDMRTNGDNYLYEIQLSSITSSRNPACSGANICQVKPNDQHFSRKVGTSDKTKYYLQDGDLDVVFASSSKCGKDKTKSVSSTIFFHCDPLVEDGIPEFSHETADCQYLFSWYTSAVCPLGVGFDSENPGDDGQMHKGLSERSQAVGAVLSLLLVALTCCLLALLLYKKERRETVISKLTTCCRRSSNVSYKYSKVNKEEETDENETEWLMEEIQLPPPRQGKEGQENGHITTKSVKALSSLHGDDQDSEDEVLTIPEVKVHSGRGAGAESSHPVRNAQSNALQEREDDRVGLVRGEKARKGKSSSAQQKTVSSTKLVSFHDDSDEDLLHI
UniProt P35670: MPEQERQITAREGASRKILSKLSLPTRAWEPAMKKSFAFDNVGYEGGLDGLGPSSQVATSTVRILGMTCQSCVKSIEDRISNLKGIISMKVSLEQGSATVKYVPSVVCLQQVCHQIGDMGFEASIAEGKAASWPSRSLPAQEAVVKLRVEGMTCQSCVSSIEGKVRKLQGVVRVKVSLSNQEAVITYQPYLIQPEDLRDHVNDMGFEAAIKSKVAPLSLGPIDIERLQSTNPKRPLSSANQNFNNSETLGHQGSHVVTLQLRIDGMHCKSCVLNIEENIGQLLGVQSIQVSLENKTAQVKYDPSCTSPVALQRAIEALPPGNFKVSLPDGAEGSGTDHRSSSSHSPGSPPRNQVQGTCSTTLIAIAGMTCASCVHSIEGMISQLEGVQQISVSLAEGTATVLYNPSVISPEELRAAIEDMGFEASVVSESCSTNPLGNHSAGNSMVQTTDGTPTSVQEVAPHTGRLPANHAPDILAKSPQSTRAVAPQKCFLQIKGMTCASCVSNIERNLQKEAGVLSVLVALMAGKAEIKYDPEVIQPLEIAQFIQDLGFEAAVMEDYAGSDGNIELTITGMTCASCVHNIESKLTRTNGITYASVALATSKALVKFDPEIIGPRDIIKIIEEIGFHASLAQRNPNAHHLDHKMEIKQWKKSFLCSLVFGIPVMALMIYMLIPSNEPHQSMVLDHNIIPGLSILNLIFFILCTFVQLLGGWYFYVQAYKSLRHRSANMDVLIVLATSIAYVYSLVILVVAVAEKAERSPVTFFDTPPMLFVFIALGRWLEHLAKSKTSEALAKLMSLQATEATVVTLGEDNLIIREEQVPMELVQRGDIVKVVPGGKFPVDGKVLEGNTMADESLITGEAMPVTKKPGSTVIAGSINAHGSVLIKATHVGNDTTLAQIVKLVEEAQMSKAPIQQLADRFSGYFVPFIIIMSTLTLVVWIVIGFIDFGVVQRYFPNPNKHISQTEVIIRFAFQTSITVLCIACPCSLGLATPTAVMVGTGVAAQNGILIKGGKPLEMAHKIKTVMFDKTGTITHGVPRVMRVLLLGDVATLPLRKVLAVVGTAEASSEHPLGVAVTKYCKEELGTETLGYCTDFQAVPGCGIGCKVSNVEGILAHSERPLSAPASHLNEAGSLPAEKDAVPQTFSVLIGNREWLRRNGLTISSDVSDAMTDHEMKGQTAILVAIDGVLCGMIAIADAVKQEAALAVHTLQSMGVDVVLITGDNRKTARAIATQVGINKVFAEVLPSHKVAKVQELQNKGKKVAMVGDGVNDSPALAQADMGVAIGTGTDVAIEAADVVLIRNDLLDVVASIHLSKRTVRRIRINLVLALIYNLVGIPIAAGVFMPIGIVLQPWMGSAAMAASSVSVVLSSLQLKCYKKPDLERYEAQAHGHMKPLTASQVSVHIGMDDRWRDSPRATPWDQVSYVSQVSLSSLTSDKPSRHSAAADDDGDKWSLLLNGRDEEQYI
UniProt O43747: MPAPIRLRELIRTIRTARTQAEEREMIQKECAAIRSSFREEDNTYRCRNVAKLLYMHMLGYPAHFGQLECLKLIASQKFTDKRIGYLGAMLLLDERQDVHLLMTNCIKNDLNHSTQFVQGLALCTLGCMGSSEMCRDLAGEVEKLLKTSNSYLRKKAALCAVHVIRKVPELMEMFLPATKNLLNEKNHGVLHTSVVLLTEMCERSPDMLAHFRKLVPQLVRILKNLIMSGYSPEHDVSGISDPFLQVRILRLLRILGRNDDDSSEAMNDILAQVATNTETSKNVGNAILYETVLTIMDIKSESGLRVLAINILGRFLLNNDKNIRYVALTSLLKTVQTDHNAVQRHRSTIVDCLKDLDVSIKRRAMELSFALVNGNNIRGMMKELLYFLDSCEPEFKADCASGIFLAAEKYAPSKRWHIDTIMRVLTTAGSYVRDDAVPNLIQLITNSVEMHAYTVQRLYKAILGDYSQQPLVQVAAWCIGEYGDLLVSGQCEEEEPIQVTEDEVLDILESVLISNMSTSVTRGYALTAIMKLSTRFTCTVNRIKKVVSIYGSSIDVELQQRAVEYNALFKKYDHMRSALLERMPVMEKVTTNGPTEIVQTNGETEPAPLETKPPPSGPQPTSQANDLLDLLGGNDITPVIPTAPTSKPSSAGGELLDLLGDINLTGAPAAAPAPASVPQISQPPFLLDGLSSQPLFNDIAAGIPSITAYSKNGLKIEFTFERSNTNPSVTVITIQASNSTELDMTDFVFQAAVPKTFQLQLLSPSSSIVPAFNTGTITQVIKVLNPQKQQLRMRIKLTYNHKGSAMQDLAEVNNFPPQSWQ

What was measured:
μ1A(WT)-GFP = molecular target: T1, μ1A(WT)-GFP (UniProt P35585); test: co-IP; GFP-Trap agarose on lysates of PEAK cells expressing GFP or μ1A-GFP forms; 10 mM Tris/HCl pH 7.5, 150 mM NaCl, 0.5 mM EDTA, 0.5% Nonidet P40; 2 h at 4 °C; Western blot of endogenous proteins
T1 sequence: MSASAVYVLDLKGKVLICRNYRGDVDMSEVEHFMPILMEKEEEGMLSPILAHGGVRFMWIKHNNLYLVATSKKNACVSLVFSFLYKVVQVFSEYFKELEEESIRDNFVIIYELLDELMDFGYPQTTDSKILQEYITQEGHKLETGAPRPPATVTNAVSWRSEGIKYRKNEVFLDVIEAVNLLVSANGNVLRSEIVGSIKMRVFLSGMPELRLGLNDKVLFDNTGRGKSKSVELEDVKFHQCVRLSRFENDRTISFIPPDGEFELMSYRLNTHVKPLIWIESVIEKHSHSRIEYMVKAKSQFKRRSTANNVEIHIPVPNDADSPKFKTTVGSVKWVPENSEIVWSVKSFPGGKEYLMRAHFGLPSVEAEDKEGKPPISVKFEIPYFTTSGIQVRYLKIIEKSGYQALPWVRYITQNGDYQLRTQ

μ1A(W408S)-GFP = molecular target: T2, μ1A(W408S)-GFP (UniProt P35585); test: as above
T2 sequence: T1 sequence with W408S

μ1A(D174A)-GFP = molecular target: T3, μ1A(D174A)-GFP (UniProt P35585); test: as above
T3 sequence: T1 sequence with D174A

[1] = molecular target: Cation-Independent Mannose-6-phosphate receptor (CI-MPR), endogenous (human (endogenous in PEAK/HEK-293T and HeLa)) (UniProt P11717); test: co-IP; HeLa lysate in PBS with 0.1% Triton X-100, pH 7.4; immunoprecipitation with mouse anti-CI-MPR antibody (anti-CD4 as negative control) and protein G-Sepharose at 4 °C; Western blot
GFP-ATP7B = GFP-ATP7B (UniProt P35670); test: co-IP; GFP-Trap on lysates of PEAK cells expressing GFP or GFP-ATP7B, treated 2 h with 200 μM CuCl2; 20 mM HEPES pH 7.5, 250 mM sucrose, 0.1% Nonidet P40, 130 mM NaCl, 1 mM EDTA; overnight at 4 °C; Western blot

Measured: binding

Cation-Independent Mannose-6-phosphate receptor (CI-MPR), endogenous (from UniProt P11717 41-2491)
binds: μ1A(WT)-GFP

γ1-adaptin subunit of AP-1, endogenous (from UniProt O43747 1-822)
binds: all assays above

B1: γ2-adaptin subunit of AP-1, endogenous (protein, UniProt O75843 1-785)
chain: MVVPSLKLQDLIEEIRGAKTQAQEREVIQKECAHIRASFRDGDPVHRHRQLAKLLYVHMLGYPAHFGQMECLKLIASSRFTDKRVGYLGAMLLLDERHDAHLLITNSIKNDLSQGIQPVQGLALCTLSTMGSAEMCRDLAPEVEKLLLQPSPYVRKKAILTAVHMIRKVPELSSVFLPPCAQLLHERHHGILLGTITLITELCERSPAALRHFRKVVPQLVHILRTLVTMGYSTEHSISGVSDPFLQVQILRLLRILGRNHEESSETMNDLLAQVATNTDTSRNAGNAVLFETVLTIMDIRSAAGLRVLAVNILGRFLLNSDRNIRYVALTSLLRLVQSDHSAVQRHRPTVVECLRETDASLSRRALELSLALVNSSNVRAMMQELQAFLESCPPDLRADCASGILLAAERFAPTKRWHIDTILHVLTTAGTHVRDDAVANLTQLIGGAQELHAYSVRRLYNALAEDISQQPLVQVAAWCIGEYGDLLLAGNCEEIEPLQVDEEEVLALLEKVLQSHMSLPATRGYALTALMKLSTRLCGDNNRIRQVVSIYGSCLDVELQQRAVEYDTLFRKYDHMRAAILEKMPLVERDGPQADEEAKESKEAAQLSEAAPVPTEPQASQLLDLLDLLDGASGDVQHPPHLDPSPGGALVHLLDLPCVPPPPAPIPDLKVFEREGVQLNLSFIRPPENPALLLITITATNFSEGDVTHFICQAAVPKSLQLQLQAPSGNTVPARGGLPITQLFRILNPNKAPLRLKLRLTYDHFHQSVQEIFEVNNLPVESWQ
binds: all assays above
